Among the data in paper PMC2225445 are binding values, retold here.

Chains of the proteins cited; added tags and fusions are not shown.
UniProt O43918: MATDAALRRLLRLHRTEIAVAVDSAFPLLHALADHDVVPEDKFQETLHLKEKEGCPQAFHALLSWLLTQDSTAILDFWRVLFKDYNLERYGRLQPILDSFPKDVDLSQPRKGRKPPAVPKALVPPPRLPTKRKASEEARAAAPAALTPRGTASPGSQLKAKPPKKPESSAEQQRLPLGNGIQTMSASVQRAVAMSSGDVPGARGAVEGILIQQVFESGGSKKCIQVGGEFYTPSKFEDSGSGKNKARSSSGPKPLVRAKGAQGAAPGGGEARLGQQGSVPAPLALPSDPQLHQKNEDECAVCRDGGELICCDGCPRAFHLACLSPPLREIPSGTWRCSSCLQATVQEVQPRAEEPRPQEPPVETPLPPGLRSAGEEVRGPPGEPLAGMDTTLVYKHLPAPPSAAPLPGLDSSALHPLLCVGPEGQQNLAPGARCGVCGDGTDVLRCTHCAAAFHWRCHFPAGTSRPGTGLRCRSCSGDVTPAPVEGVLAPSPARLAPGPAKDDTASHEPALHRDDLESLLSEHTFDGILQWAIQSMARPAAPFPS
UniProt P78527: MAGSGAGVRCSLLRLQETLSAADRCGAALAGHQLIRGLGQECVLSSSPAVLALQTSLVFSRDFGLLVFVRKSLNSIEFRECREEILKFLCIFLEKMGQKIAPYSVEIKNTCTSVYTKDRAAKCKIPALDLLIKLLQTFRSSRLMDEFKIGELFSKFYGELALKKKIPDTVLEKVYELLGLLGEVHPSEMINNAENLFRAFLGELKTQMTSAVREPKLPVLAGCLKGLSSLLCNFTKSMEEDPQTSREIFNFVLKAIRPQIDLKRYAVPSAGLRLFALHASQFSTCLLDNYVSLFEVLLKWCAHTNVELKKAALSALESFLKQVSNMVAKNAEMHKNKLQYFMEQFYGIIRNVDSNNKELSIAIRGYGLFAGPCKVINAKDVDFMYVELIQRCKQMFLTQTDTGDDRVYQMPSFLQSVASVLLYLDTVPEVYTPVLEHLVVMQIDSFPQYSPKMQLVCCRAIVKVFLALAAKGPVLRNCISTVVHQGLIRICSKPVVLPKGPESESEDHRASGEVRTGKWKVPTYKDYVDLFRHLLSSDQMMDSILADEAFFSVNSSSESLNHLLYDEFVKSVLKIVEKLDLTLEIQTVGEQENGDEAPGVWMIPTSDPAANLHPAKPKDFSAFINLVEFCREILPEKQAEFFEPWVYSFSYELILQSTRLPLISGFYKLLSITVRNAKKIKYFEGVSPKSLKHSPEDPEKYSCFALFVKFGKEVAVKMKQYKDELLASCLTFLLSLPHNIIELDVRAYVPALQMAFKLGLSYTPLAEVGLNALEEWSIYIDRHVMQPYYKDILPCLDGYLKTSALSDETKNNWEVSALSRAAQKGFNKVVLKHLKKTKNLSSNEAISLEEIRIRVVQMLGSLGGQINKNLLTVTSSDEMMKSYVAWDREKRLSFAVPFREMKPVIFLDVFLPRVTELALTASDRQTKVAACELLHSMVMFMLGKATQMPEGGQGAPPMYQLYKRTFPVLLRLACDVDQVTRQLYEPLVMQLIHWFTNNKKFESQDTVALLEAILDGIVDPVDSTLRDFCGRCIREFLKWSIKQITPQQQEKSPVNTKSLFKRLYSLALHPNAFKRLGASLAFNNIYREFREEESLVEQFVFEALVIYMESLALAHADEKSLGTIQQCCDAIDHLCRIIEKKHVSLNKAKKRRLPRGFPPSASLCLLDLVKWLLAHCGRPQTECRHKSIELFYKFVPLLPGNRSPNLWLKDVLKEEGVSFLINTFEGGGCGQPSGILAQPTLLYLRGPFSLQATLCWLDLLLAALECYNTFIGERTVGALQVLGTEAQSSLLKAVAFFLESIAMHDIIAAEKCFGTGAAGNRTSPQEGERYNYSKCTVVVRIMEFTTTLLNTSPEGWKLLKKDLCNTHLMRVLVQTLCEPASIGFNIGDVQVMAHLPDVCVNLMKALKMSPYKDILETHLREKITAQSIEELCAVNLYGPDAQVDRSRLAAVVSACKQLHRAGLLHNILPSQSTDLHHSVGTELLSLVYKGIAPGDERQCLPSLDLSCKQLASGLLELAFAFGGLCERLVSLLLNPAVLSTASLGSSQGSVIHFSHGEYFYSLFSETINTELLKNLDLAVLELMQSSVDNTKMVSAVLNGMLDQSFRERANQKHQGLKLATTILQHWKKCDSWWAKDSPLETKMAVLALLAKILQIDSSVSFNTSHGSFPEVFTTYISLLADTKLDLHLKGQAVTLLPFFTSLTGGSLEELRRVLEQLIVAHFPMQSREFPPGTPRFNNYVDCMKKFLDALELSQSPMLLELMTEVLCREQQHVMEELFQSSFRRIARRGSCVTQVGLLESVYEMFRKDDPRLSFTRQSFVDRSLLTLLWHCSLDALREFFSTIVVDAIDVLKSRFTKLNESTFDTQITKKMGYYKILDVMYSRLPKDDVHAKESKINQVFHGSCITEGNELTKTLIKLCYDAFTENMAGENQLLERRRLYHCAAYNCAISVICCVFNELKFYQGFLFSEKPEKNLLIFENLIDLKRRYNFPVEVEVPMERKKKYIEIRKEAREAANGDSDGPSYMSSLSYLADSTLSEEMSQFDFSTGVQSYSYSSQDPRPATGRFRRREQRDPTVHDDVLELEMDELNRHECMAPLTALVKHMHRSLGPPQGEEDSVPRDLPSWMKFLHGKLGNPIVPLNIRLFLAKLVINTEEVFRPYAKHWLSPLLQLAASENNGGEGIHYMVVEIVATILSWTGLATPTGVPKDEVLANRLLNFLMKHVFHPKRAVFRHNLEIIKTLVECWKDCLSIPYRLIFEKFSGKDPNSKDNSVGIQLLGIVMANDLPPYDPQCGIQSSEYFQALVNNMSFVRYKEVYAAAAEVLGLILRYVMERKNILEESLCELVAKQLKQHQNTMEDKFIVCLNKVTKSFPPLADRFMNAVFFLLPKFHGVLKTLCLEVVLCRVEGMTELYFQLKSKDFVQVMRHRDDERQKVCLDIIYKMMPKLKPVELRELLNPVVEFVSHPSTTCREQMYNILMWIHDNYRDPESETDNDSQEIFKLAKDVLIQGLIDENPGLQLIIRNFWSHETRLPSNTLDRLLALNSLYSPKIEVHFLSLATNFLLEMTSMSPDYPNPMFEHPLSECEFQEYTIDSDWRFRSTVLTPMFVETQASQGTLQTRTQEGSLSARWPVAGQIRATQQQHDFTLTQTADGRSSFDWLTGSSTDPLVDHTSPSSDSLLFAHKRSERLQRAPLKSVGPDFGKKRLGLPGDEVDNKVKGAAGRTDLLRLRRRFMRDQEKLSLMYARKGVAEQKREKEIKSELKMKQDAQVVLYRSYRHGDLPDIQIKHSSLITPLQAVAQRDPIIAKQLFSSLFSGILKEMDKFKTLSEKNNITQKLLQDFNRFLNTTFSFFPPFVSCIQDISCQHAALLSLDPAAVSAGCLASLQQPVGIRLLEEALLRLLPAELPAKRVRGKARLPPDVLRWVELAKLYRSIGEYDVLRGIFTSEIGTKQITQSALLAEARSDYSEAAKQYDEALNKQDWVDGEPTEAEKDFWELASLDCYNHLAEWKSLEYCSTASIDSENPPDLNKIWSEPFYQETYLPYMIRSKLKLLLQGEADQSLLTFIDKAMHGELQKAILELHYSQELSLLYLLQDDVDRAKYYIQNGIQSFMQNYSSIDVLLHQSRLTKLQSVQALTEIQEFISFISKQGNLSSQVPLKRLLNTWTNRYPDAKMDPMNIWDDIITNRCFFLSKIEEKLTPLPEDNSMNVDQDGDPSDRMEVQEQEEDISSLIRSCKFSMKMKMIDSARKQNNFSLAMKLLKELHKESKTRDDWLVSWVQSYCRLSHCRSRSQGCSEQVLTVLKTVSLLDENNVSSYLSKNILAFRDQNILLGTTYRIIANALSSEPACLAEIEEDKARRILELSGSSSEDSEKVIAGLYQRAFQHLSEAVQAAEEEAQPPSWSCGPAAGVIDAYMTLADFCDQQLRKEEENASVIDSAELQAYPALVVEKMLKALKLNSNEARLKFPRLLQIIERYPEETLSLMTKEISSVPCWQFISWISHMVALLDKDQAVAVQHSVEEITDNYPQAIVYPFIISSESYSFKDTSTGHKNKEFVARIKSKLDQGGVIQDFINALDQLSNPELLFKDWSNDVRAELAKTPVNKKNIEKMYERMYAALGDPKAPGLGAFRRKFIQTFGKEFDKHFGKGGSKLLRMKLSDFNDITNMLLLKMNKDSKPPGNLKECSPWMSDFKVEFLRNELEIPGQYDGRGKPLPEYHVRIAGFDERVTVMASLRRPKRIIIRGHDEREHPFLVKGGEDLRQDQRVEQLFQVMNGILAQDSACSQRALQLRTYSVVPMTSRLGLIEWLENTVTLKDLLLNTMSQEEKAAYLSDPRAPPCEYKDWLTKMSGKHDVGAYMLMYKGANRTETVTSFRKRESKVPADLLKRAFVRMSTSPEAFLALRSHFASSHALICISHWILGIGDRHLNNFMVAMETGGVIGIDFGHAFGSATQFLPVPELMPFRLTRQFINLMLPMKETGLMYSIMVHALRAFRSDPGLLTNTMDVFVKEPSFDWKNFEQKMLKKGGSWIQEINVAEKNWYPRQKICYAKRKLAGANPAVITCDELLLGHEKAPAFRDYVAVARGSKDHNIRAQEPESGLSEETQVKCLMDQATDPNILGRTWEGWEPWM

No constants are given. Whether binding was seen depends on the method and setting. Binding seen in cells or lysates may run through a third protein. Some binding calls cover weakened binding; strength is not graded here.

This test addresses full-length AIRE (autoimmune regulator), transfected in HEK293 (human) (UniProt O43918). Description: co-IP; whole-cell extracts of HEK293 transfected with AIRE; IP with anti-DNA-PK 4F10C5, anti-AIRE 6.1 or control antibodies, protein G-Sepharose, 0.3 M NaCl, 4 C; Western blot with anti-AIRE or anti-DNA-PK.

For the substance “DNA-PK catalytic subunit (DNA-PKcs), HEK293 (from UniProt P78527 1-4128) (enzyme)”, the binding result is listed as “binds”.
